Experimental data from patent US20170049855A1.
Results are given in words; binding and its absence hold for the method and conditions named.

The chains behind the UniProt entries cited, without tags or fusion partners. Where a name states a change or a piece, a line headed by the entry shows the natural chain unless it says otherwise. Residues count along the entry.
UniProt P02769, residues 25-607: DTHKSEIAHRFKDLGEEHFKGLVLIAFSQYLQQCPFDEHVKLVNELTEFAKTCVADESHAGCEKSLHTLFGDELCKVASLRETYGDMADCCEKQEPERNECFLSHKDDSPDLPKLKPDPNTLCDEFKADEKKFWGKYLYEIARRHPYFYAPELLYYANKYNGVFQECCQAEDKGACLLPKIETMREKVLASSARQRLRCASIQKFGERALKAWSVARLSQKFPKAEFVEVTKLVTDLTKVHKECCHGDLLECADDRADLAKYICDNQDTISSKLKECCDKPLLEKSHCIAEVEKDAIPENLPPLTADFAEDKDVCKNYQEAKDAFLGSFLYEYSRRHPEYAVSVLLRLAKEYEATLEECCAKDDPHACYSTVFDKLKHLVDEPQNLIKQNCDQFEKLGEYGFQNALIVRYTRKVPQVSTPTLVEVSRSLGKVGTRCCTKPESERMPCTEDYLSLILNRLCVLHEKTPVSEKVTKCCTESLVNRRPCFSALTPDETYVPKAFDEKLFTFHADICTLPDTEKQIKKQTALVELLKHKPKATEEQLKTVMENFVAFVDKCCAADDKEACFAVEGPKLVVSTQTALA
UniProt P28799: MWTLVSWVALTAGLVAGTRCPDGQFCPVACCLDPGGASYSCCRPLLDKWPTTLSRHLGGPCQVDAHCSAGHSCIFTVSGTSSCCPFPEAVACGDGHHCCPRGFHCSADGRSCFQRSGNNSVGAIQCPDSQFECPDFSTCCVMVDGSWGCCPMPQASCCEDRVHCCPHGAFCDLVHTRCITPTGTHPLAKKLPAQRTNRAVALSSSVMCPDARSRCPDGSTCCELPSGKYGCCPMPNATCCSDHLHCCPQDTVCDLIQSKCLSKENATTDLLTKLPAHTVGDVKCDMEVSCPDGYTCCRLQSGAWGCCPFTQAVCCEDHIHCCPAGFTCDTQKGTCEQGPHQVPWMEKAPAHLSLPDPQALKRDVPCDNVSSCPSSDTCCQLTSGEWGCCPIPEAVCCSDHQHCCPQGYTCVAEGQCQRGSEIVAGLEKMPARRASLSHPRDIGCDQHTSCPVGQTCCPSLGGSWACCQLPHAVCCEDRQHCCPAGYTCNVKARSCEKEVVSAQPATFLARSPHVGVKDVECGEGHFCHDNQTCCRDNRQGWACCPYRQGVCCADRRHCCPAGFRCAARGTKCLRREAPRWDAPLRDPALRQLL

Target: BSA (bovine) (UniProt P02769)
Test: solid phase binding assay: PGRN coated at the concentration on the x axis (µg/ml), biotin-labeled BSA added, streptavidin-HRP, OD 450 nm

binding: no binding (tested: 5 µg/ml)
Substance: Recombinant His-tag PGRN protein (recombinant human progranulin) (from UniProt P28799 18-593) (ligand)
